This is one part of the list.
Key:
Assay in all cases: log2 fold change, soluble protein after heating vs DMSO (PISA); higher = thermal stabilisation; K562 lysate, 10 uM; active = over 0.2 and 3.5 SD of the protein, either way, in both replicates (recomputed)
[1] = compound: Cc1nc(Nc2ncc(C(=O)Nc3c(C)cccc3Cl)s2)cc(N2CCN(CCO)CC2)n1 [dasatinib]
Summary of the method: (§1)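 K562 pellets were dounce-homogenised in PBS pH 7.4 with 1 mM MgCl2, and the crude extract at 1 mg/mL protein was treated with 10 μM compound for 30 min. Aliquots were heated for 3 min across 48°C-58°C, pooled, and brought to 0.5% NP-40 at 4°C; soluble protein was the supernatant after 21,000xg for 90 min. Soluble protein was quantified by TMTpro 16plex LC-MS/MS with channel sums equalised, and reported as log2 fold change in thermal stability against DMSO controls, with values from duplicates.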

Chains of the proteins cited; added tags and fusions are not shown. Lines headed by an entry give the natural chain unless they say otherwise; changes in a name come on top.
UniProt Q8IYI0: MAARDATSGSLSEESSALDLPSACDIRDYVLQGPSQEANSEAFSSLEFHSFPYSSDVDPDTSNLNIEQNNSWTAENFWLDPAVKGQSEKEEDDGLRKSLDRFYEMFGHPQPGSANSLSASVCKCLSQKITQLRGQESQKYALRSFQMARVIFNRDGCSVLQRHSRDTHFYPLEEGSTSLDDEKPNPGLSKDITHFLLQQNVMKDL
UniProt Q9UIU6: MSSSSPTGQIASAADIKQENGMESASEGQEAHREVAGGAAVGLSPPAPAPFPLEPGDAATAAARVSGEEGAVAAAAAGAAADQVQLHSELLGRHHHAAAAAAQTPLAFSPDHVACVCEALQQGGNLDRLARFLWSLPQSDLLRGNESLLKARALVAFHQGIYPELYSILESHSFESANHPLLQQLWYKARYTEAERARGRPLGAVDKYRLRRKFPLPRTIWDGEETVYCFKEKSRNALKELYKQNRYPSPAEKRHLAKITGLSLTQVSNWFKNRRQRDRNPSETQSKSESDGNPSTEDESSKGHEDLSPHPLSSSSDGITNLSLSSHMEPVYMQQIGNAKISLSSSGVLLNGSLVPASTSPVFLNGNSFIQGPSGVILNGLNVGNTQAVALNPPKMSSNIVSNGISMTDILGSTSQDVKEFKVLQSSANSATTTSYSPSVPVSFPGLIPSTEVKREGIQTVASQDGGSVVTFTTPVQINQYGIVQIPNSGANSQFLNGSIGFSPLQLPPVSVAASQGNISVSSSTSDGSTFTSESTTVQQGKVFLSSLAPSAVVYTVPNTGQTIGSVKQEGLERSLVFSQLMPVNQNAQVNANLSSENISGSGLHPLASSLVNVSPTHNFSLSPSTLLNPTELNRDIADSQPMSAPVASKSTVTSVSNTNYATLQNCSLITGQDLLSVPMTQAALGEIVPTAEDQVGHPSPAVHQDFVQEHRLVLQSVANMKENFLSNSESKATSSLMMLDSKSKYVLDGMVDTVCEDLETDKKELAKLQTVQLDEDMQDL
UniProt Q6P4A7: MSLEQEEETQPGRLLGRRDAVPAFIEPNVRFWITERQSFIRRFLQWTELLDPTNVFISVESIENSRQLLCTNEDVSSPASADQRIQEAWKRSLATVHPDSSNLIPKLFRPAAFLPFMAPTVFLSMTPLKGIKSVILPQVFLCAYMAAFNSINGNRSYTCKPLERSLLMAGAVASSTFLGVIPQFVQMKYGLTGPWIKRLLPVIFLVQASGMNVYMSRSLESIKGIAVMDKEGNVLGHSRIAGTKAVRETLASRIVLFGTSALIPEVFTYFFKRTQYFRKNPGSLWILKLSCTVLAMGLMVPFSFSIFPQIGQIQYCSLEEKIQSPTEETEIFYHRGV
UniProt O43255: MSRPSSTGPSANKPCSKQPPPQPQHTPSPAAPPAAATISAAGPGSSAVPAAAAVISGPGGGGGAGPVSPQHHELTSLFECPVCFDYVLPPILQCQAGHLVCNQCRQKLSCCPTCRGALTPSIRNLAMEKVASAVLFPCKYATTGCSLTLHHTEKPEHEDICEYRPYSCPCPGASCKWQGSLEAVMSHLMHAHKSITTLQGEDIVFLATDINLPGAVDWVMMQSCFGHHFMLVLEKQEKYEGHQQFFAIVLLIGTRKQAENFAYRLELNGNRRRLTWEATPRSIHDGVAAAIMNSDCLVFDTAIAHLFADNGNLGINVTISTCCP
UniProt Q8WV19: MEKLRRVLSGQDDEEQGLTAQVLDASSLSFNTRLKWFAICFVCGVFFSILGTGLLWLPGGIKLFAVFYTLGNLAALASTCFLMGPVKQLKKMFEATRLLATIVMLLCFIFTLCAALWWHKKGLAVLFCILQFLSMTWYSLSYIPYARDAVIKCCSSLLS
UniProt P78314: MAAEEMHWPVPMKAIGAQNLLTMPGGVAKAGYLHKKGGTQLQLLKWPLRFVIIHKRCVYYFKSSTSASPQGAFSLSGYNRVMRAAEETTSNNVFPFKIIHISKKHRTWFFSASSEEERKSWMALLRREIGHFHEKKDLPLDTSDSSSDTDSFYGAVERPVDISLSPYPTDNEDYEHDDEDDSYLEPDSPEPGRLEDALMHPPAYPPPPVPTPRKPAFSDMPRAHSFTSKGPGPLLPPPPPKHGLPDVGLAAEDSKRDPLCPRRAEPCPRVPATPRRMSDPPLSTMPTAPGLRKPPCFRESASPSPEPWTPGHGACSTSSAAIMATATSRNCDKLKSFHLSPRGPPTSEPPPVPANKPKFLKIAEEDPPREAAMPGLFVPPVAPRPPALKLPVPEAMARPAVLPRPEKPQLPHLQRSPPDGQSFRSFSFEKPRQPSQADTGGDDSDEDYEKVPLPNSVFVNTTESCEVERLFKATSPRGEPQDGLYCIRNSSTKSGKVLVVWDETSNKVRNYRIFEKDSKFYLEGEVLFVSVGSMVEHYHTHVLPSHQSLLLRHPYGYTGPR
UniProt Q96BI1: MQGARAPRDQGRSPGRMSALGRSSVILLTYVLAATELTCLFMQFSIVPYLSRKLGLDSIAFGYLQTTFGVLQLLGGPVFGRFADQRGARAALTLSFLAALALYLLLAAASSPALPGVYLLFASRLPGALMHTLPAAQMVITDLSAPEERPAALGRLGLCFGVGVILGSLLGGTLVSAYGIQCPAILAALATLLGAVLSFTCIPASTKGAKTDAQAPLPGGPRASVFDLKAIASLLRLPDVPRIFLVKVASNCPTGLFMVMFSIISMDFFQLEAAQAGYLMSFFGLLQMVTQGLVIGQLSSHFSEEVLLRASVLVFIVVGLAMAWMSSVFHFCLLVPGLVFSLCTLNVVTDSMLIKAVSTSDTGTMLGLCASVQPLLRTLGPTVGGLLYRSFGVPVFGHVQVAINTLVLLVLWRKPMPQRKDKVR
UniProt O14796: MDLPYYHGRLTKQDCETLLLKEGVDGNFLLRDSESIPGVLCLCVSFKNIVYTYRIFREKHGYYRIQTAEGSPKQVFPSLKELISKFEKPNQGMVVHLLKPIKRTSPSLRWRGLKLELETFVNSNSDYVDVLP
UniProt Q96EP9: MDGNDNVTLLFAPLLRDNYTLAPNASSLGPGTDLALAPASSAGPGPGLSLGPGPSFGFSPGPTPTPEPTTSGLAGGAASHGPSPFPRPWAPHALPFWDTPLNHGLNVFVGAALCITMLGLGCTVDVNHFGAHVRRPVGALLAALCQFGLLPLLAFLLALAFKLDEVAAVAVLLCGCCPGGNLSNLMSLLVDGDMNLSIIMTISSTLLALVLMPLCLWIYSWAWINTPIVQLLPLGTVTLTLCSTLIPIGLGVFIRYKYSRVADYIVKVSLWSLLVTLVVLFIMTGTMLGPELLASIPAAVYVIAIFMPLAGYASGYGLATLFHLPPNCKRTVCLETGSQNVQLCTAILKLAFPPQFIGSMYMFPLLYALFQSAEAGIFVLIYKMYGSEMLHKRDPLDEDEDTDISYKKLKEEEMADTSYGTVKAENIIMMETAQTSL
UniProt Q9HAT2: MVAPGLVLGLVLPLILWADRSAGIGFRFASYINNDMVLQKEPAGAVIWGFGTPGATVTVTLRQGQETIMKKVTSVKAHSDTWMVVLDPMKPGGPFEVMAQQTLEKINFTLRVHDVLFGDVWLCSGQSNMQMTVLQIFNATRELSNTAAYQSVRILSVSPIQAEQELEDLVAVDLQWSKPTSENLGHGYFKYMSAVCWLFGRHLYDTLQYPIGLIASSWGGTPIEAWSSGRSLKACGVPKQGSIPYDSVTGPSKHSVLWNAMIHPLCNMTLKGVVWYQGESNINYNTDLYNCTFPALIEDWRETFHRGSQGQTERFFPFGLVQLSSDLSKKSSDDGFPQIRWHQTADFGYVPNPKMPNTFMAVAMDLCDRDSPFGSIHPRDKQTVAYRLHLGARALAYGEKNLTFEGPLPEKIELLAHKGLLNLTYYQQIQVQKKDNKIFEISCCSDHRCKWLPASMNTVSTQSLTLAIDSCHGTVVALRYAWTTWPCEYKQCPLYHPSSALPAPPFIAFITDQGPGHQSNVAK
UniProt P12757: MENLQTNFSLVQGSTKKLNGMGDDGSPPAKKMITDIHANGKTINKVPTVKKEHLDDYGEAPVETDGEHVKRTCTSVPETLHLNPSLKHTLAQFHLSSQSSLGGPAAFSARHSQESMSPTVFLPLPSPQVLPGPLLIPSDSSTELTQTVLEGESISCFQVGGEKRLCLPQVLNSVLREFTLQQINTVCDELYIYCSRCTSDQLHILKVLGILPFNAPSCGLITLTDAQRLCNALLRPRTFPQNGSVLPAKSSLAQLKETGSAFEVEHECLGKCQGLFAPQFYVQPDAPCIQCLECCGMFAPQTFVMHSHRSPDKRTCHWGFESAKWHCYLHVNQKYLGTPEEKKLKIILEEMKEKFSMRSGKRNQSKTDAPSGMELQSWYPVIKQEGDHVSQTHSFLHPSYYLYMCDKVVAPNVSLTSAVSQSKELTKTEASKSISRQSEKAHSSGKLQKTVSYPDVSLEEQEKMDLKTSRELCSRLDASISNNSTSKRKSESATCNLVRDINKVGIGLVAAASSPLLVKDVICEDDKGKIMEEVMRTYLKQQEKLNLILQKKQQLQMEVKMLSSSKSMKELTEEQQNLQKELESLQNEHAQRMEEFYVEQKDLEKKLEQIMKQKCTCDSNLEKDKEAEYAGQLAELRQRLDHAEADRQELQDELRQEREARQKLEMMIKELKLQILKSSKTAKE
UniProt Q9BRG2: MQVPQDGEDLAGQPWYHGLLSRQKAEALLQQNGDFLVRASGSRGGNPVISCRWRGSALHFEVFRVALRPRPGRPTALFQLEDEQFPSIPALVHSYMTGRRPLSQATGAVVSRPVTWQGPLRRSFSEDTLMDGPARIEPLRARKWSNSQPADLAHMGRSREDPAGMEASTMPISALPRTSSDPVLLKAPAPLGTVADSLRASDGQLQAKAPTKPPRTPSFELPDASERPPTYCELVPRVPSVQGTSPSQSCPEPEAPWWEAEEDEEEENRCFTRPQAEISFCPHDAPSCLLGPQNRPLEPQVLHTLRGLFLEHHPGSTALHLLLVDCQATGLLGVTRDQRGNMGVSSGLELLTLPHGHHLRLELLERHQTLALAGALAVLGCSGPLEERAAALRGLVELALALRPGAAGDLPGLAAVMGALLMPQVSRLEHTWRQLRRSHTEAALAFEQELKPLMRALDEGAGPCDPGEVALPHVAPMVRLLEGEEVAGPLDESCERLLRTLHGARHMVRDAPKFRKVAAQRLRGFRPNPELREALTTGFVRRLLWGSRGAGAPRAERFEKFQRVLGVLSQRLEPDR
UniProt Q9Y6P5: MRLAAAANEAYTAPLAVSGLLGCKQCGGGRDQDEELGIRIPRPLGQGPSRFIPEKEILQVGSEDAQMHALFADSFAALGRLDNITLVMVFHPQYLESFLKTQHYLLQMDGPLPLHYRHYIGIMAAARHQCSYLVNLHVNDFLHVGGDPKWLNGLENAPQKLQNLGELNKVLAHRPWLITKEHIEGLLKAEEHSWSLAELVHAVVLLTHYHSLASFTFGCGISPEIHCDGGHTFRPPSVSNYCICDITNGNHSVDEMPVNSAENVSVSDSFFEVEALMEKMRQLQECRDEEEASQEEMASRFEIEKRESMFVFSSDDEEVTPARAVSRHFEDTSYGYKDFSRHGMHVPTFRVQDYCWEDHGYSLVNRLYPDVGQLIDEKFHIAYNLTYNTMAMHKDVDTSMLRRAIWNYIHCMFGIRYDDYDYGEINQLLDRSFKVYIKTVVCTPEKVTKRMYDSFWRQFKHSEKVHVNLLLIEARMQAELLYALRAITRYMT
UniProt Q8NC51: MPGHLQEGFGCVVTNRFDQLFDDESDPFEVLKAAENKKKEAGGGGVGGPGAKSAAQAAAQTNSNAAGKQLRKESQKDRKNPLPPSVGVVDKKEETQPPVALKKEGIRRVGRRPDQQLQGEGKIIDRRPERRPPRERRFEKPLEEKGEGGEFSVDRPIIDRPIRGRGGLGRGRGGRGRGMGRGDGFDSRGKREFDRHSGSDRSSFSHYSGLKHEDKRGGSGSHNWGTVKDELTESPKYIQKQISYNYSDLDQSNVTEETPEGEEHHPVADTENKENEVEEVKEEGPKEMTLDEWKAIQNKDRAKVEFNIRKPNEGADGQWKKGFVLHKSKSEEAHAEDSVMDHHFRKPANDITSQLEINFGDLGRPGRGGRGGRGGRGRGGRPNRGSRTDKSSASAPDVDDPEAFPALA
UniProt Q15464: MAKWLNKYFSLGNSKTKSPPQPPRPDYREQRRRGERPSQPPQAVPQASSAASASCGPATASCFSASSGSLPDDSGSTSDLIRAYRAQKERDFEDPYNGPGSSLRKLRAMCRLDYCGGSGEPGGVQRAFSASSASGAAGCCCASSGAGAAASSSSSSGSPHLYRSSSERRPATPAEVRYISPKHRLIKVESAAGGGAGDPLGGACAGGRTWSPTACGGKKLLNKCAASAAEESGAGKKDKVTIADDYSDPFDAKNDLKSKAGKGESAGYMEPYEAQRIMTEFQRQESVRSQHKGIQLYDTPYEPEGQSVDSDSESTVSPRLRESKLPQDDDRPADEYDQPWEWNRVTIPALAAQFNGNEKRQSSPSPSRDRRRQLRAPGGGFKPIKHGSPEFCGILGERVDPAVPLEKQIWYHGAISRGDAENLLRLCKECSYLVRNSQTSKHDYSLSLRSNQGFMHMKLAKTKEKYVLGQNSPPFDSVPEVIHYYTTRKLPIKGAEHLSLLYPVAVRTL

[2] = compound: Cn1cc(-c2ccc3c(c2)CCN3C(=O)Cc2cccc(C(F)(F)F)c2)c2c(N)ncnc21
Summary of the method: as §1

[3] = compound: Cc1cn(-c2cc(NC(=O)c3ccc(C)c(Nc4nccc(-c5cccnc5)n4)c3)cc(C(F)(F)F)c2)cn1 [nilotinib]
Summary of the method: as §1

[4] = compound: Cc1nc(Nc2n[nH]c3c2CN(C(=O)N[C@H](CN(C)C)c2ccccc2)C3(C)C)c2sccc2n1
Summary of the method: as §1

[5] = compound: Cc1ncc(-c2ccnc(Nc3ccc(S(C)(=O)=O)cc3)n2)n1C(C)C
Summary of the method: as §1

[6] = compound: Cn1cc(CNCC2CCN(c3ncc(C(=O)NO)cn3)CC2)c2ccccc21 [quisinostat]
Summary of the method: as §1

[7] = compound: Cn1cncc1[C@@](N)(c1ccc(Cl)cc1)c1ccc2c(c1)c(-c1cccc(Cl)c1)cc(=O)n2C [tipifarnib]
Summary of the method: as §1

[8] = compound: NC(=O)Nc1cc(-c2cccc(F)c2)sc1C(=O)N[C@H]1CCCNC1
Summary of the method: as §1

[9] = compound: NC(=O)c1cnc(N[C@@H]2CCCC[C@@H]2N)nc1Nc1cccc(-n2nccn2)c1
Summary of the method: as §1

[10] = compound: NC1(c2ccc(-c3nc4ccn5c(=O)[nH]nc5c4cc3-c3ccccc3)cc2)CCC1
Summary of the method: as §1

Measured: log2 fold change

SHLD1 (UniProt Q8IYI0)
inactive: [1] -0.24 | [2] -0.001

SLC18B1 (UniProt Q6NT16)
inactive: [3] -0.026 | [4] 0.062 | [5] -0.02 | [6] 0.03 | [7] 0.004 | [8] 0.056 | [9] 0.012 | [10] -0.016

SGO2 (UniProt Q562F6)
inactive: [6] -0.063 | [8] 0.02

SLAIN2 (UniProt D6RIF6)
inactive: [6] 0.072 | [8] -0.043

SETD1B (UniProt Q9UPS6)
inactive: [1] -0.101 | [2] 0.166 | [6] 0.018 | [8] -0.057

SIX4 (UniProt Q9UIU6)
inactive: [3] 0.015 | [4] 0.026 | [5] -0.016 | [7] -0.003 | [9] 0.055 | [10] -0.03

SIRT3 (UniProt Q9NTG7)
inactive: [1] 0.045 | [2] 0.084 | [6] -0.076 | [8] 0.01 | [9] -0.033 | [10] -0.053

SFXN4 isoform 3 (UniProt Q6P4A7)
inactive: [3] -0.228 | [4] 0.005 | [5] -0.091 | [6] -0.219 | [7] 0.036 | [8] 0.102 | [10] 0.009

SIGIRR (UniProt Q6IA17)
inactive: [9] 0.311

SLC12A7 (UniProt Q9Y666)
inactive: [9] -0.162

SIAH2 (UniProt O43255)
inactive: [3] 0.02 | [4] 0.052 | [5] -0.053 | [7] 0.03 | [9] -0.202 | [10] -0.028

SFT2D1 (UniProt Q8WV19)
inactive: [1] 0.054 | [2] 0.31 | [6] 0.03 | [8] 0.153

SERPINF2 (UniProt P08697)
inactive: [6] 0.324 | [8] -0.052

SH3BP2 isoform 4 (UniProt P78314)
inactive: [1] -0.027 | [2] -0.107 | [6] -0.111 | [8] 0.019 | [9] 0.141 | [10] 0.048

SLC22A18 (UniProt Q96BI1)
inactive: [6] -0.027 | [8] -0.032 | [9] 0.029 | [10] 0.007

SIK2 (UniProt Q9H0K1)
inactive: [3] -0.148 | [4] 0.233 | [5] 0.176 | [7] -0.05

SH2B3 (UniProt Q9UQQ2)
inactive: [6] 0.056 | [8] -0.127 | [10] 0.023

SH2D1B (UniProt O14796)
inactive: [1] 0.066 | [2] -0.023 | [6] -0.095 | [8] -0.035

SLC10A4 (UniProt Q96EP9)
inactive: [1] -0.057 | [2] -0.104 | [9] 0.088 | [10] -0.056

SERPINB7 (UniProt O75635)
inactive: [6] -0.505 | [8] 0.249

SH3KBP1 (UniProt Q96B97)
inactive: [1] 0.075 | [2] -0.128 | [6] -0.047 | [8] 0.06 | [9] -0.093 | [10] -0.074

SIAE (UniProt Q9HAT2)
inactive: [6] 0.039 | [8] -0.008

Three records drawn at random from those above, as already listed:
SH3KBP1 (UniProt Q96B97)
inactive: [1] 0.075 | [2] -0.128 | [6] -0.047 | [8] 0.06 | [9] -0.093 | [10] -0.074

SIAE (UniProt Q9HAT2)
inactive: [6] 0.039 | [8] -0.008

SH2D1B (UniProt O14796)
inactive: [1] 0.066 | [2] -0.023 | [6] -0.095 | [8] -0.035

Further results

SKIL (UniProt P12757)
inactive: [10] -0.291

SH2D3A (UniProt Q9BRG2)
inactive: [3] -0.042 | [4] 0.192 | [5] 0.063 | [7] 0.02

SLC12A6 isoform 2 (UniProt Q9UHW9)
inactive: [1] -0.072 | [2] 0.206 | [6] -0.011 | [8] -0.055 | [9] -0.043 | [10] 0.039

SGK3 (UniProt Q96BR1)
inactive: [1] -0.291 | [2] 0.117 | [10] 0.112

SESTD1 (UniProt Q86VW0)
inactive: [6] -0.061 | [8] 0.186

SESN1 isoform 2 (UniProt Q9Y6P5)
inactive: [6] -0.18 | [8] 0.042 | [9] -0.047 | [10] -0.102

SERPINH1 (UniProt E9PK86)
inactive: [3] -0.277 | [4] -0.003 | [5] 0.119 | [7] 0.057

SF1 (UniProt H7C0N4)
inactive: [6] -0.06 | [8] -0.072 | [9] -0.078

SERBP1 isoform 3 (UniProt Q8NC51)
inactive: [1] 0.006 | [2] 0.025 | [6] -0.051 | [8] 0.016 | [9] -0.056 | [10] -0.185

SERPINA1 (UniProt P01009)
inactive: [1] 0.107 | [2] 0.136

SLC15A4 (UniProt Q8N697)
inactive: [1] 0.052 | [2] -0.095 | [6] -0.164 | [8] -0.002 | [9] 0.045 | [10] 0

SHB (UniProt Q15464)
inactive: [1] 0.05 | [2] 0.004 | [6] 0.072 | [8] -0.026 | [9] -0.02 | [10] -0.01

SF3B2 (UniProt E9PJ04)
inactive: [3] -0.04 | [4] 0.103 | [5] 0.091 | [7] 0.067 | [9] 0.085 | [10] -0.031

SLC11A1, A0A0A0MTL3
inactive: [3] -0.408 | [4] 0.122 | [5] -0.216 | [7] 0.154 | [9] -0.076

— the supplement of paper PMC10849652
